# Values quoted from earlier work as cited in patent US20150239832A1, “ANALOGS AND PRODRUGS OF LOOP DIURETICS, INCLUDING BUMETANIDE, FUROSEMIDE AND PIRETANIDE; COMPOSITIONS AND METHODS OF USE” (Neuro Pro Therapeutics, Inc., priority 2012, published 2015).
# Tests used:
# rats = settings: whole animal studies in rats
smiles,measurement,setting,value
NS(=O)(=O)c1cc(C(=O)O)c(NCc2ccco2)cc1Cl [furosemide],effect on kainic acid status,rats,blocks kainic acid status
same,affinity for NKCC1 relative to KCC2,NKCC1 over KCC2,significantly greater affinity for NKCC1 over KCC2
